The list shows a part of the results. Rule as the data show it: active = 150% or more and inactive = the rest. Single values are uncertain, as repeats are few or missing.
Tested on: Staphylococcus aureus JE2-lux inside RAW 264.7 macrophages
Assay: intracellular bacterial bioluminescence relative to DMSO vehicle; higher = higher intracellular bacterial metabolic activity
Conditions: 10 µM; treatment time 4 h; gentamicin 50 µg/ml

Intracellular bacterial bioluminescence, inactive:
CCC(=O)NCCSc1ncc(-c2ccccc2)[nH]1 99.9%
CCN1C(=O)c2cccc3c(NC(=O)Nc4ccc(Cl)cc4)ccc1c23 47.7%
COc1cc(/C=N/NC(=O)CCc2c(C)n[nH]c2C)ccc1O 117%
c1c2c(cc3sc(N4CCOCC4)nc13)OCCO2 102%
O=C(c1cccc(Nc2nc(-c3ccccc3)c3cc(Cl)ccc3n2)c1)N1CCOCC1 89.6%
O=C(O)c1ccc(CNC2=NS(=O)(=O)c3ccccc32)cc1 116%
Cc1ccc2cccc(S(=O)(=O)Nc3ccc(C(=O)O)cc3)c2n1 115%
CN(Cc1ccccc1)C(=O)Cn1cccc1-c1nc(-c2ccc(Cl)cc2)cs1 87.2%
Cc1cc2nnc(SCC(=O)NCc3ccco3)n2c2ccccc12 61.8%
COc1ccc(OC)c(-n2c(=S)[nH]c3cc(C(=O)NCc4ccco4)ccc3c2=O)c1 90.4%
CC(=O)Nc1ccc2nc(NC(=O)c3cc(Cl)sc3Cl)sc2c1 98.7%
Cn1c(=O)c2sccc2n2c(CCCC(=O)NCCc3c[nH]c4ccccc34)nnc12 118%
NC(=O)c1sc(=S)n(-c2ccccc2)c1N 87.2%
COc1ccc(NC(=O)CSc2nnc(-c3cccnc3)o2)c(OC)c1 87.9%
Cn1c2ccc(Br)cc2c2nnc(SCc3nc4ccccc4[nH]3)nc21 73.6%
c1cnc(N2CCN(c3nn4nnnc4c4ccccc34)CC2)nc1 77.8%
CCOC(=O)C(C)Sc1nc2c(c(=O)[nH]c(=O)n2C)n1CCc1ccccc1 (stereo not given) 94.8%
COc1ccc(C2CC(c3cccc(NS(C)(=O)=O)c3)=NN2C(=O)c2ccco2)cc1 (stereo not given) 96.7%
CCOC(=O)c1c(C)oc2c1C1=NC(C)(C)CN1C=N2 72.4%
O=C(CSc1nnc2c(n1)-c1cccc3cccc-2c13)NNC(=O)c1ccc(Cl)cc1 110%
CN(C)c1cccc(C(=O)Nc2nnc(-c3ccccc3)[nH]2)c1 97.9%
CCCc1cc(=O)[nH]c2nnc(SCc3ccc(C(=O)OC)o3)n12 112%
COC(=O)c1cc2c(cc1NC(=O)c1cc3cccc(OC)c3oc1=O)OCCO2 113%
Cn1/c(=N\C(=O)CCS(=O)(=O)c2ccc(F)cc2)sc2c(Cl)ccc(Cl)c21 67.5%
Cc1cc2cc3c(N)c(C(=O)N4CCc5ccccc54)sc3nc2cc1C 97.5%
CC(=O)Nc1ccc(NC(=O)CN2CCC3(CC2)NC(=O)N(C)C3=O)cc1 124%
COc1ccccc1N1CC(C)Cn2c1nc1c2c(=O)n(CC(N)=O)c(=O)n1C (stereo not given) 106%
COc1cccc(NC(=O)c2sc3nc4c(c(-c5cccs5)c3c2N)CCCCC4)c1 107%
O=C(CNC(=O)c1ccccc1)N/N=C1\C(=O)Nc2ccc([N+](=O)[O-])cc21 108%
COc1cccc(C(=O)COC(=O)c2cc(O)nc3ccccc23)c1 103%
Cc1nc(N2CCN(c3ccccc3)CC2)[nH]c(=O)c1CCC(C)C 111%
COC(=O)c1c(NC(=O)CCc2ccccc2)sc2c1CC(C)(C)NC2(C)C 85.9%
Cc1sc2ncnc(NC3CCCCC3)c2c1S(=O)(=O)N1CCCCC1 44.3%
CCOc1cccc(-c2csc(NC(=O)c3cnc(SC)nc3)n2)c1 91.7%
COc1ccc(C2CC(c3cccs3)=NN2C(=O)COc2cccc3c2CCNC3=O)cc1 (stereo not given) 65.3%
CC(NC(=O)CC1Nc2cccc3cccc(c23)NC1=O)c1ccccc1 (stereo not given) 74%
COc1cccc(-c2noc(-c3cccn4c(=O)c5ccccc5nc34)n2)c1OC 111%
CN(C(=O)c1ccc(Cn2cccn2)o1)c1nc2c(s1)CCc1c-2cnn1C 81.5%
O=C1NC2(CCN(CC(=O)N3CCCC4CCCCC43)CC2)Nc2ccccc21 (stereo not given) 99.1%
Cc1cc(C)c2c(O)nc(SCC(=O)c3ccc(F)c(C)c3)nc2n1 59.7%
CC(=O)Nc1cc2c(cc1NC(=O)c1ncoc1-c1cccc(F)c1)OCCO2 89.8%
CCn1c(SCC(=O)NNC(=O)c2ccc(C)cc2)nc2c1c(=O)n(C)c(=O)n2C 77.2%
Cc1cccc2cc(C#N)c(SCC(=O)Nc3ccccc3-c3ccccc3)nc12 71.1%
COc1ccc(-c2cn3nc(SCC(=O)Nc4ccc(NC(C)=O)cc4)ccc3n2)cc1 87.6%
Cn1c(SCC(=O)Nc2ccc3c(c2)OCO3)nc2c(-c3ccccc3)csc2c1=O 96.3%
O=C(Nc1sc2c(c1C(=O)NC1CCS(=O)(=O)C1)CCCC2)c1ccccc1Cl (stereo not given) 95.5%
CN(C)S(=O)(=O)N1CCC(n2nc(C3CC3)ccc2=O)CC1 85.9%
Cc1cc2ccccc2n2c(=O)n(CC(C)NC(=O)CC(C)n3cncn3)nc12 (stereo not given) 115%
CC(=O)Nc1cccc(NC(=O)CSc2nc(=O)n(Cc3ccco3)c3c2CCC3)c1 93.3%
Cc1ccc(/C=C(\C#N)C(=O)Nc2ccccc2O)o1 87.3%
CC(=O)c1cccc(NC(=O)CSc2ccc(-c3ccccn3)nn2)c1 74.2%
COc1ccc2oc(=O)c(C(=O)Nc3cccc(-c4cn5cccc(C)c5n4)c3)cc2c1 70.4%
CNc1ncccc1CN1CCc2cc(OC)c(OC)cc2C1c1ccccc1 (stereo not given) 56%
Cn1c(=O)[nH]c(=O)c2[nH]c(CN3CCN(c4ccc(F)cc4)CC3)nc21 99.5%
CC(=O)N1CCCc2ccc(NC(=O)C(=O)NCCc3ccc(S(N)(=O)=O)cc3)cc21 107%
CCOc1ccc2nc(-n3nc(C)c4c3NC(=O)CC4c3cc(Br)ccc3OC)sc2c1 (stereo not given) 109%
COc1ccc(CN(Cc2cc3cc(C)ccc3[nH]c2=O)C(=O)N2CCCC2)cc1 88.3%
Cc1ccc2c(c1)n(Cc1ccc(Cl)cc1)c(=O)c1nc(C(=O)NCCN3CCCC3)nn12 91.2%
COc1cccc(Oc2coc3cc(OCC(N)=O)ccc3c2=O)c1 122%
Cc1cc2ccccc2c(=O)n1CC(=O)NCC1COc2ccccc2O1 (stereo not given) 9.05%
O=C(NNc1nc2c(F)cccc2s1)c1nc2ccccc2s1 113%
Cc1cc(NC(=O)c2cc(=O)c3ccccc3o2)no1 49.2%
Cc1ccnc(NC(=O)C2CCN(S(=O)(=O)c3c(C)nn(CC(=O)N4CCCC4)c3C)CC2)c1 10.6%
CCn1nc(C)c2[nH]c(=S)n(Cc3ccccc3Cl)c(=O)c21 75%
CCn1c(SCC(=O)c2ccc(C)cc2)nc2cccnc21 73.8%
CC(=O)N1CCc2nc(NC(=O)c3cccs3)sc2C1 117%
Cc1c(C)n2c(SCC(=O)NC3CCCCC3)nnc2[nH]c1=O 89.2%
CC(=O)N1CCc2c(sc(NC(=O)c3cc(C)ccc3C)c2C#N)C1 143%
CSc1cccc(NC(=O)CSc2nc3c(oc4ccccc43)c(=O)n2Cc2ccco2)c1 123%
Cc1ccc(Cn2c(SCc3cc(=O)n4cc(Cl)ccc4n3)nc3ccsc3c2=O)cc1 91.7%
C=CCn1c2c(c(=O)[nH]c1=O)C(c1cccc(C)c1)C1=C(COC1=O)N2 (stereo not given) 108%
O=C(O)c1cccc(Cn2c(Cl)c(/C=N/NC(=O)c3ccncc3)sc2=O)c1 101%
CC(C)c1nc2ccccc2c2nnc(SCC(=O)Nc3ccc(F)cc3)n12 107%
Cc1cccc(NC(=O)NC2CC(=O)N(c3ccc(F)cc3)C2)n1 (stereo not given) 126%
CCOCCCn1c(SCC(=O)Nc2ccc(C)cc2C)nc2c(oc3ccccc32)c1=O 114%
Cc1ccc2cc(C#N)c(N3CCCN(C(=S)NCc4ccco4)CC3)nc2c1C 84.5%
CCOC(=O)c1sc(NC(=O)c2cc3c(ccc4ccccc43)oc2=O)cc1C 88.4%
C=CCOc1ccccc1NC(=O)c1nnn(-c2ccccc2)c1C 56.8%
CCOc1ccccc1CNC(=O)c1sc(-n2cccc2)nc1C 71.1%
COc1cccc(C(=O)Nc2c(-n3cnnc3)nn(C)c2C)c1 111%
COc1cc(OC)cc(C(=O)Nc2cc3c4c(c2)CCC(=O)N4CCC3)c1 102%
Cc1ccc2[nH]c3nc(SCC(=O)Nc4ccc5c(c4)OCO5)nnc3c2c1 101%
CCOC(=O)CSc1nc(C)nc2c1c(=O)n(C)c(=O)n2C 110%
CC1CCc2nc(NC(=S)NC(=O)c3ccccc3)sc2C1 (stereo not given) 90.1%
O=C(NNC1=C/C(=N/S(=O)(=O)c2ccccc2)c2ccccc2C1=O)c1cccc([N+](=O)[O-])c1 60.1%
COc1ccc(N2C(=O)CC(NNC(=O)c3ccccc3)C2=O)cc1 (stereo not given) 113%
CCn1c(=O)c(-c2noc(CCC(=O)Nc3ccc(OC)cc3)n2)nn(-c2ccc(C)cc2)c1=O 79.6%
COc1ccc(Cc2cnc(NC(=O)/C=C/c3ccc([N+](=O)[O-])cc3)s2)cc1 87.4%
Nc1c(C(=O)c2ccccc2)sc2nc3c(c(-c4ccco4)c12)CC/C3=C\c1ccco1 77%
Cc1cc2cc(C#N)c(NCCNC(=S)Nc3ccccc3Cl)nc2cc1C 109%

Sorted by SMILES length (rising): part of the list above
Intracellular bacterial bioluminescence, inactive:
CC(=O)c1cccc(NC(=O)CSc2ccc(-c3ccccn3)nn2)c1 74.2%
Cc1cc(C)c2c(O)nc(SCC(=O)c3ccc(F)c(C)c3)nc2n1 59.7%
Cc1cc2ccccc2n2c(=O)n(CC(C)NC(=O)CC(C)n3cncn3)nc12 (stereo not given) 115%
Cc1ccc2c(c1)n(Cc1ccc(Cl)cc1)c(=O)c1nc(C(=O)NCCN3CCCC3)nn12 91.2%

From the supplement of paper PMC12578635
